In publication PMC3948724 one finds binding data, which are given here for 1 molecule.

This assay concerns the target G533A COX-2, catalytically impaired mutant of human COX-2 (human). The assay can be described thus: co-IP; COX-2 immunoprecipitated from lysates (RIPA/SDS buffer) of HEK 293 cells transfected with mock, COX-2 or G533A COX-2; blots probed for COX-2 and endogenous EP1; cells treated for 15 min with vehicle (ethanol), arachidonic acid (2.5, 10 or 50 uM) or the EP1 agonist 17E2 (1 uM).

These are yes or no findings as the source states them, for the method shown. Binding seen in cells or lysates may run through a third protein. Binding calls can cover weak binding; strength is not graded here. Tags and fused reporters may be left off the sequences shown.

B1: prostaglandin E2 receptor EP1, endogenous in HEK 293 cells (receptor, UniProt P34995 1-402)
chain: MSPCGPLNLSLAGEATTCAAPWVPNTSAVPPSGASPALPIFSMTLGAVSNLLALALLAQAAGRLRRRRSAATFLLFVASLLATDLAGHVIPGALVLRLYTAGRAPAGGACHFLGGCMVFFGLCPLLLGCGMAVERCVGVTRPLLHAARVSVARARLALAAVAAVALAVALLPLARVGRYELQYPGTWCFIGLGPPGGWRQALLAGLFASLGLVALLAALVCNTLSGLALLRARWRRRSRRPPPASGPDSRRRWGAHGPRSASASSASSIASASTFFGGSRSSGSARRARAHDVEMVGQLVGIMVVSCICWSPMLVLVALAVGGWSSTSLQRPLFLAVRLASWNQILDPWVYILLRQAVLRQLLRLLPPRAGAKGGPAGLGLTPSAWEASSLRSSRHSGLSHF
As to B1, the binding entry is recorded as “binds”.
